No constants are given. Whether binding was seen depends on the method and setting. Binding seen in cells or lysates may run through a third protein. Binding calls can cover weak binding; strength is not graded here.

Chains of the proteins cited; added tags and fusions are not shown. Lines headed by an entry give the natural chain unless they say otherwise; changes in a name come on top.
UniProt Q8I1R7: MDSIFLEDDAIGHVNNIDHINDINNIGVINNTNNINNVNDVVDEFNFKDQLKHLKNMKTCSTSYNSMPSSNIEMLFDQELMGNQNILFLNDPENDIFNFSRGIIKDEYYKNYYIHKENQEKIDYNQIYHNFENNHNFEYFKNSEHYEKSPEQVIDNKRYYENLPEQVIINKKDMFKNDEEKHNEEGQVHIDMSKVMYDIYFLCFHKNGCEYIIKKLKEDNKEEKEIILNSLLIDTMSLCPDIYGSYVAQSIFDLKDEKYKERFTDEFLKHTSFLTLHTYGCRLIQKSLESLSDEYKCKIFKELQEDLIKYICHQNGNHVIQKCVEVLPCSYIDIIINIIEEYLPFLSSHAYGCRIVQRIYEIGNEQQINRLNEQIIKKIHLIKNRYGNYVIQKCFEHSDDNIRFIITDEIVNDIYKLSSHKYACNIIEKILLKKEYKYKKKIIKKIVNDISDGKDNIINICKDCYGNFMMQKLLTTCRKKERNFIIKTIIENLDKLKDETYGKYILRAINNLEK
UniProt Q8I3L1: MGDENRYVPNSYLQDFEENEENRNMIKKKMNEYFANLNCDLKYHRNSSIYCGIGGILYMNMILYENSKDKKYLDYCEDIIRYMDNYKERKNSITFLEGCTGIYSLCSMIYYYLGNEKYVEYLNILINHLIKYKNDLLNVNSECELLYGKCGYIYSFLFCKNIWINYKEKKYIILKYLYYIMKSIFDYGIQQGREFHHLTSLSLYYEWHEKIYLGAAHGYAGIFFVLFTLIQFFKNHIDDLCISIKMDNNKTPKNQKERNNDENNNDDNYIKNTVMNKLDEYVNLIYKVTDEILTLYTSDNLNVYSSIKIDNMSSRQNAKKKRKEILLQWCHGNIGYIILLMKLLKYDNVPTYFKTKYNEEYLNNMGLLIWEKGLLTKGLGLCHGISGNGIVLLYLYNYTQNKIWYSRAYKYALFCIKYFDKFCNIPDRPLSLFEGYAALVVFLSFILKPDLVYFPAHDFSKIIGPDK
UniProt Q8IK89: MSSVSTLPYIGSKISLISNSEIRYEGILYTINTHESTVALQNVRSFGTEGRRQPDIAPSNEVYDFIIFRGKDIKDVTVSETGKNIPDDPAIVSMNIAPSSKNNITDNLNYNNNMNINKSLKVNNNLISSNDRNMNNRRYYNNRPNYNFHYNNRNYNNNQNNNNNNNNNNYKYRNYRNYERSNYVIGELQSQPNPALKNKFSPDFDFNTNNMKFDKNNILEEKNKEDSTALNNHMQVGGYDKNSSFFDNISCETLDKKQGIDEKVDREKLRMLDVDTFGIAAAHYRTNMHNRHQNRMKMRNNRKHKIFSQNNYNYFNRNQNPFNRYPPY
UniProt Q8I5H4: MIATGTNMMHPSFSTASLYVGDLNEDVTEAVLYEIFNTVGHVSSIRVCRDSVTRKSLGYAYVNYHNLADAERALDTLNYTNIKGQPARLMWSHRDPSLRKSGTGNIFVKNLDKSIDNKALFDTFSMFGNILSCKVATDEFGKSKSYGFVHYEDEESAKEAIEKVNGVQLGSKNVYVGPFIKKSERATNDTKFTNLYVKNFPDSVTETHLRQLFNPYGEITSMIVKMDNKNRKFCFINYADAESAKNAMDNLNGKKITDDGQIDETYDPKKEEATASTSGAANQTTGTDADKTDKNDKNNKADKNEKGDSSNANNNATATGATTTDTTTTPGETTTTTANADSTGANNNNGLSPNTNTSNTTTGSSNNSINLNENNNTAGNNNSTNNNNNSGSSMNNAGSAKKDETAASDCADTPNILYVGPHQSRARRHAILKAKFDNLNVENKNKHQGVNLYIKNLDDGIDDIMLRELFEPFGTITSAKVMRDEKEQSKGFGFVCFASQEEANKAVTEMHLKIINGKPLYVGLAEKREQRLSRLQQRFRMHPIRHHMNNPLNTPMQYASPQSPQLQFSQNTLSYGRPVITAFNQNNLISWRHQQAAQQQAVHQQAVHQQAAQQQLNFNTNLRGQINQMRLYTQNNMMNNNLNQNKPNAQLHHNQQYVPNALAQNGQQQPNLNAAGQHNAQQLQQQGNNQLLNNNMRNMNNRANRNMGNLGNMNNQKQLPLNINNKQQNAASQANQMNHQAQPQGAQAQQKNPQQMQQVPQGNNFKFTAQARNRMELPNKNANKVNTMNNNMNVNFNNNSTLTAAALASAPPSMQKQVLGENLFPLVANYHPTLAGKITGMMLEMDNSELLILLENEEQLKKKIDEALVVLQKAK

Assay [1] has as its target Pumilio-2 (Puf2) (P. falciparum (endogenous in gametocytes)) (UniProt Q8I1R7). Kind of assay: co-IP; gametocyte lysates of WT NF54 or the 7-Helix-1-HA line, pre-cleared with 5% pre-immune sera and protein G-beads 1 h at 4°C; 5% polyclonal antisera 1 h at 4°C, protein G-beads overnight at 4°C; five washes with PBS; Western blot.
The target in assay [2] is 7-Helix-1 (P. falciparum (endogenous in NF54 gametocytes)) (UniProt Q8I3L1). The description is as above.

For 7-Helix-1-HA (from UniProt Q8I3L1), the binding entry in assay [1] is recorded as “binds”.

In the case of “CITH (CAR-I/trailer hitch homolog) (from UniProt Q8IK89)”, in assay [2], the binding entry was “binds”.

“PABP1 (polyadenylate-binding protein 1) (from UniProt Q8I5H4)”: in assay [2], the binding entry is “binds”.

Source of the values: PMC6122839.
